Assay [1] addresses T1, NACHT, LRR, and PYD domain‐containing protein 11 (NLRP11) (human (endogenous in A549, H1299)) (UniProt P59045).
T1 sequence: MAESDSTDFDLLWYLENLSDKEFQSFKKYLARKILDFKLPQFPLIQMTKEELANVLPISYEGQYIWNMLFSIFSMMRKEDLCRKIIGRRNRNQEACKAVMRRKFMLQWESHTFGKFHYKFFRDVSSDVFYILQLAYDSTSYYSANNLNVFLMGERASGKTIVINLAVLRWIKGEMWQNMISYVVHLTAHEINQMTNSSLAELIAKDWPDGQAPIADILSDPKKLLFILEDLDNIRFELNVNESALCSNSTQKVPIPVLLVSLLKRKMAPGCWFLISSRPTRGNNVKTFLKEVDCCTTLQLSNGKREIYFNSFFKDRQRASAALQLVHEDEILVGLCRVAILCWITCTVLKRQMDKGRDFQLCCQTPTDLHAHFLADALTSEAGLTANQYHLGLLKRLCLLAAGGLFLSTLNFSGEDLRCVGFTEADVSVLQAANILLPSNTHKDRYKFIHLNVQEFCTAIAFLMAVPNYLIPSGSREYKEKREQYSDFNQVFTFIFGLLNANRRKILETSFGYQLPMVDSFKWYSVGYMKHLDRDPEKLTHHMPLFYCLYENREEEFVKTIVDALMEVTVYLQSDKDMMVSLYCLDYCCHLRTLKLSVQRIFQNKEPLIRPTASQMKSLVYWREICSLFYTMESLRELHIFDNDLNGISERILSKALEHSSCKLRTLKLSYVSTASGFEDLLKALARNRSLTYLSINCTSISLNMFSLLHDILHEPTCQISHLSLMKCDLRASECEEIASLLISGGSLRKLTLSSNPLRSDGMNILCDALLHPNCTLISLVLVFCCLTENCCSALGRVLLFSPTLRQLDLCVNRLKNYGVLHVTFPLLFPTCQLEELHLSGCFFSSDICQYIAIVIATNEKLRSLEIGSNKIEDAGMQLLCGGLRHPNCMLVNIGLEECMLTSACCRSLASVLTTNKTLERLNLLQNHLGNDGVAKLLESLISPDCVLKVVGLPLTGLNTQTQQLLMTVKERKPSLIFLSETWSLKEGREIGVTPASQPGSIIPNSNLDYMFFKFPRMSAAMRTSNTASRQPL
Kind of assay: affinity purification with mass spectrometry; co-IP of NLRP11 from H1299 cells, LC-MS/MS of the co-precipitated proteins.

Sequences of proteins named here, by UniProt entry; tags and fusion partners are left off.
UniProt P08670: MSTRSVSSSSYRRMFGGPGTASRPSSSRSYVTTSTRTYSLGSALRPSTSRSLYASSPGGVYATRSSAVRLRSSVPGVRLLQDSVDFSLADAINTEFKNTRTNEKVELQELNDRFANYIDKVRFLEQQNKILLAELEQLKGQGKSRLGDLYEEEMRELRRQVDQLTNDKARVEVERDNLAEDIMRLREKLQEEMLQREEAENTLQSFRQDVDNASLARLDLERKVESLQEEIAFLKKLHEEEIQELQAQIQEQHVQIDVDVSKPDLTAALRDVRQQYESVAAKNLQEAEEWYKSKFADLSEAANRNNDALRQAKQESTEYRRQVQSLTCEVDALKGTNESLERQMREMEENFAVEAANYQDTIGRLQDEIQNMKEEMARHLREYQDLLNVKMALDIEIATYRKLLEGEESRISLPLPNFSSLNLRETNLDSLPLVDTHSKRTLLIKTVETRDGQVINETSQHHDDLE
UniProt O95251: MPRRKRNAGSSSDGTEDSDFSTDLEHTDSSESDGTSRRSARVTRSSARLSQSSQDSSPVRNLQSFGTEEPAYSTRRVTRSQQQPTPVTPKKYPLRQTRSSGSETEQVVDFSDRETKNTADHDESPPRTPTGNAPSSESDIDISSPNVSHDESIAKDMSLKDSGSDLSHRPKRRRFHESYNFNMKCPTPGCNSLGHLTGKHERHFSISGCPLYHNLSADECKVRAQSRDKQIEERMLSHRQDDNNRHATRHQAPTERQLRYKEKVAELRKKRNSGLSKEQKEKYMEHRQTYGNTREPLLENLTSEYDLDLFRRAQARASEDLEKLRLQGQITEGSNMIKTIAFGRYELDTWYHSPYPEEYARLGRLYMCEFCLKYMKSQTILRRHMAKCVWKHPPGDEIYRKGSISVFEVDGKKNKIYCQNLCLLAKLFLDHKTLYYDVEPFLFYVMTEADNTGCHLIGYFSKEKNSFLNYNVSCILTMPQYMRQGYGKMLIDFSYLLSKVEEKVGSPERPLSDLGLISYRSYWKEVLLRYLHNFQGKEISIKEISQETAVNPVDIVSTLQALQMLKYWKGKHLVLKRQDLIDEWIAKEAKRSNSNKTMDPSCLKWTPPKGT

For assay [2], the target named is vimentin (human (endogenous in A549, H1299)) (UniProt P08670). As to the kind of experiment: affinity purification with mass spectrometry; co-IP of vimentin from H1299 cells, LC-MS/MS of the co-precipitated proteins.

Results are given in words; binding and its absence hold for the method and conditions named. In cells and extracts the contact can be indirect. A yes stands for co-enrichment or nearness to the bait. Other partners may have been found.

Take “lysine acetyltransferase 7 (KAT7) (from UniProt O95251 1-611) (enzyme)”: the binding entry in assay [1] and in assay [2] was “binds” throughout.

On to vimentin (from UniProt P08670 1-466), for which the binding result in assay [1] is “binds”.

Regarding “vimentin acetylated at Lys104 (vimentin‐K104Ac) (from UniProt P08670 1-466)”, in assay [1], the binding result is “binds”.
